Data source: PubChem BioAssay AID720505 (Drosophila RNAi Screening Center, 2013)

Purpose: 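Genes needed for store-operated calcium entry in fly cells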 (primary screen)
Cell system: Drosophila S2R+ cells
Knock-down reagent: long dsRNA against Drosophila genes
Challenge: thapsigargin (2 µM) in calcium-free buffer to empty internal stores, then 2 mM calcium added back
Detection: 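Stores emptied by 2 µM thapsigargin without calcium, then 2 mM calcium re-added; fluo-4 fluorescence followed by FLIPR in 384-well plates, per-well averaged endpoint, raw; two screen passes, some wells retested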
Direction: calcium signal and retest calcium signal: higher = more calcium entry after store depletion
Rule for the call: 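About 1500 genes called as lowering calcium entry, by varying amounts, judged against per-plate control wells with STIM1 as positive and Rho1 as negative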
Meaning of the calls: active = called as lowering calcium entry; inactive = not called
The screen tested about 20,000 reagents; shown is an unselected part of those that have a named target and a result. Of all reagents, about 2,100 (10%) got an active call. 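Raw plate signals without normalisation; calls rest on control-based scores that were not deposited; replicate 2 separates called from uncalled poorly.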 Names joined by + are all predicted targets of the reagent. Not stated in the record: the amount of reagent, the time to read-out.

target | dsRNA | calcium signal, replicate 1 | calcium signal, replicate 2 | retest calcium signal, replicate 1 | retest calcium signal, replicate 2 | call
slmo + CG34179 | DRSC03143 | 88.9 | 194 | – | – | inactive
CG31975 + ovm | DRSC00323 | 140 | 106 | – | – | inactive
PRL-1 | DRSC03393 | 87.1 | 84.4 | – | – | inactive
Kyat | DRSC16147 | 97.9 | 106 | – | – | inactive
CG4291 | DRSC00650 | 133 | 188 | – | – | inactive
alpha-Catr | DRSC04669 | 82.9 | 228 | – | – | inactive
Blos2 | DRSC10147 | 121 | 130 | – | – | inactive
CG11635 | DRSC06075 | 121 | 109 | – | – | inactive
ClC-b | DRSC07220 | 132 | 224 | – | – | inactive
CG9673 | DRSC20202 | 86.8 | 145 | – | – | inactive
CG15916 | DRSC19740 | 90.1 | 153 | – | – | inactive
CG13360 | DRSC18536 | 65.5 | 142 | 68.6 | 99.2 | active
CG41020 (retired record) | DRSC20866 | 104 | 12030 | – | – | inactive
CG17475 | DRSC15238 | 128 | 208 | – | – | inactive
Hr3 | DRSC06118 | 130 | 164 | – | – | inactive
Hr3 | DRSC07441 | 130 | 193 | – | – | inactive
CG32277 | DRSC08196 | 91.4 | 108 | – | – | inactive
CBP | DRSC17746 | 171 | 128 | – | – | inactive
Hdc | DRSC07439 | 152 | 208 | – | – | inactive
CG3777 | DRSC18489 | 182 | 140 | – | – | inactive
FLASH | DRSC06872 | 72.2 | 157 | – | – | inactive
CG3746 | DRSC04412 | 79 | 140 | – | – | inactive
CG15083 | DRSC06514 | 108 | 95.4 | – | – | inactive
Dnaaf3 | DRSC06684 | 177 | 260 | – | – | inactive
Gba1a | DRSC21494 | 151 | 115 | – | – | inactive
CG18530 | DRSC15341 | 159 | 83.2 | – | – | inactive
sw + Sdic4 + Sdic3 + 2 more | DRSC20696 | 145 | 92.9 | – | – | inactive
CG13364 | DRSC17898 | 54.5 | 142 | – | – | active
CG13364 | DRSC21263 | 134 | 83.7 | – | – | inactive
CG18233 | DRSC10308 | 69.7 | 138 | – | – | inactive
ERR | DRSC10840 | 120 | 112 | – | – | inactive
CG3566 | DRSC18311 | 59.2 | 225 | – | – | active
cyp33 | DRSC07600 | 159 | 102 | – | – | inactive
CG5171 | DRSC02823 | 88 | 233 | – | – | inactive
eIF2beta | DRSC11341 | 62.7 | 92.5 | – | – | inactive
Mcad | DRSC09871 | 54 | 70.7 | – | – | active

Laid out differently: results already given
{"target":"CG17475","dsRNA":"DRSC15238","calcium signal, replicate 1":128,"calcium signal, replicate 2":208,"call":"inactive"}
{"target":"Hr3","dsRNA":"DRSC06118","calcium signal, replicate 1":130,"calcium signal, replicate 2":164,"call":"inactive"}
{"target":"Hr3","dsRNA":"DRSC07441","calcium signal, replicate 1":130,"calcium signal, replicate 2":193,"call":"inactive"}
{"target":"CG32277","dsRNA":"DRSC08196","calcium signal, replicate 1":91.4,"calcium signal, replicate 2":108,"call":"inactive"}
{"target":"CBP","dsRNA":"DRSC17746","calcium signal, replicate 1":171,"calcium signal, replicate 2":128,"call":"inactive"}
{"target":"Hdc","dsRNA":"DRSC07439","calcium signal, replicate 1":152,"calcium signal, replicate 2":208,"call":"inactive"}

The list goes on.
target | dsRNA | calcium signal, replicate 1 | calcium signal, replicate 2 | retest calcium signal, replicate 1 | retest calcium signal, replicate 2 | call
CG1571 | DRSC18068 | 158 | 92.1 | – | – | inactive
Vhl | DRSC07716 | 76 | 122 | – | – | inactive
CG4230 | DRSC02740 | 88.1 | 206 | – | – | inactive
CG13041 | DRSC09922 | 87.4 | 133 | – | – | inactive
CG2955 | DRSC00552 | 117 | 219 | – | – | inactive
Nup188 | DRSC21830 | 177 | 67.1 | – | – | inactive
eIF3d1 | DRSC16938 | 58.9 | 80.1 | – | – | active
Doc2 | DRSC22716 | 137 | 206 | – | – | inactive
CG4409 | DRSC06869 | 182 | 155 | – | – | inactive
Tl | DRSC16885 | 95.9 | 154 | – | – | inactive
CG6928 | DRSC10749 | 123 | 75.2 | – | – | inactive
CG7755 | DRSC07040 | 128 | 126 | – | – | inactive
CG11127 | DRSC06043 | 73.1 | 154 | – | – | active
CG3744 | DRSC15511 | 115 | 105 | – | – | inactive
aust | DRSC02558 | 179 | 136 | – | – | inactive
mbo | DRSC16123 | 90.5 | 112 | – | – | inactive
NTPase | DRSC00761 | 127 | 140 | – | – | inactive
Hsc70-5 | DRSC07442 | 213 | 107 | – | – | inactive
fy | DRSC03533 | 205 | 107 | – | – | inactive
UQCR-14L | DRSC15288 | 169 | 138 | – | – | inactive
UQCR-14L | DRSC22425 | 99.8 | 154 | – | – | inactive
CycT | DRSC11124 | 130 | 122 | – | – | inactive
CycT | DRSC23304 | 79.2 | 140 | – | – | inactive
Lsd-2 | DRSC20143 | 125 | 98 | – | – | inactive
Xport-A + Xport-B | DRSC15586 | 140 | 208 | – | – | inactive
krimp | DRSC06578 | 181 | 78.6 | – | – | inactive
Ns3 | DRSC18607 | 72.4 | 82.8 | 94.6 | 83 | active
CG3345 | DRSC00596 | 73.9 | 168 | – | – | inactive
CG31262 | DRSC13216 | – | – | – | – | active
CG18735 | DRSC04312 | 201 | 121 | – | – | inactive
jagn | DRSC12152 | 146 | 100 | – | – | inactive
mRpS25 | DRSC19598 | 60.2 | 146 | – | – | active
Spn42Dd | DRSC05024 | 56 | 78.9 | – | – | active
Spn42Dd | DRSC22060 | 95.6 | 212 | – | – | inactive
CG18662 | DRSC02691 | 88.5 | 130 | – | – | inactive
Irbp18 | DRSC10612 | 87.9 | 151 | – | – | inactive
alpha-Est7 | DRSC12619 | 103 | 130 | – | – | inactive
Fum4 | DRSC22577 | 204 | 179 | – | – | inactive
byn | DRSC11332 | 91 | 71.5 | – | – | inactive
Xbp1 | DRSC04553 | 173 | 152 | – | – | inactive
Xbp1 | DRSC21624 | 116 | 105 | – | – | inactive
CG11788 | DRSC06084 | 166 | 128 | – | – | inactive
CG11777 | DRSC06081 | 99.5 | 203 | – | – | inactive
alpha-Man-Ib | DRSC14418 | 71.5 | 88.9 | – | – | active
PGS1 | DRSC16304 | 189 | 194 | – | – | inactive
Stat92E | DRSC16870 | 194 | 265 | – | – | inactive
CG32061 | DRSC22605 | 69.5 | 129 | – | – | inactive
